These are yes or no findings as the source states them, for the method shown. In cells and extracts the contact can be indirect. Here binding means that the protein was enriched with, or labelled near, the bait; the list need not be complete.
Target: OsASN2-GFP fusion protein (rice) (UniProt Q43011)
Experiment: affinity purification with mass spectrometry; soluble protein extract of 35S:OsASN2-GFP transgenic rice plants incubated with anti-GFP beads; 35S:GFP plants as control; eluate analysed by LC-MS/MS

Chains of the proteins cited; added tags and fusions are not shown. Lines headed by an entry give the natural chain unless they say otherwise; changes in a name come on top.
UniProt Q43011: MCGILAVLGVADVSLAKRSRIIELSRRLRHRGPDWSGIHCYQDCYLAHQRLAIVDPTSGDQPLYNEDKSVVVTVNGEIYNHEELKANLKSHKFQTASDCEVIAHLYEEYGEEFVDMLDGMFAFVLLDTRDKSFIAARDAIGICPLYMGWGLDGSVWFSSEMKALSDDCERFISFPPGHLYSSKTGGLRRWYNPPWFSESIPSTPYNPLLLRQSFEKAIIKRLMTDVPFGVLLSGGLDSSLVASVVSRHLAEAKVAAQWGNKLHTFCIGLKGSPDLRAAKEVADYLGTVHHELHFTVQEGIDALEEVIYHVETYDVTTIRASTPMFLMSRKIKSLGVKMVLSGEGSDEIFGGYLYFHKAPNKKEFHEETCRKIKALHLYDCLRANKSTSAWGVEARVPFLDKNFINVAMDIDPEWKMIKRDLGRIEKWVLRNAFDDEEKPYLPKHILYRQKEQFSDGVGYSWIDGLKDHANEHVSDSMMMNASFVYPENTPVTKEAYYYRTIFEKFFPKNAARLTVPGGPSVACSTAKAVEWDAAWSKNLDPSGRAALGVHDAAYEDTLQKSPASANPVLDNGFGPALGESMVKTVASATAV

B1: pyruvate phosphate dikinase OsPPDKB (enzyme, UniProt Q6AVA8 72-947)
chain: TTKKRVFHFGKGKSEGNKAMKDLLGGKGANLAEMASIGLSVPPGFTVSTEACQQYQAAGKTLPAGLWEEIVEGLQWVEEYMAARLGDPARPLLLSVRSGAAVSMPGMMDTVLNLGLNDEVAAGLAAKSGDRFAYDSYRRFLDMFGNVVMDIPHALFEEKLEAMKAVKGLHNDTDLTATDLKELVAQYKDVYVEAKGEPFPSDPKKQLQLAVLAVFNSWDSPRAIKYRSINKITGLKGTAVNVQTMVFGNMGNTSGTGVLFTRNPSTGEKKLYGEFLVNAQGEDVVAGIRTPEDLDAMRDHMPEPYEELVENCKILESHYKEMMDIEFTVQENRLWMLQCRTGKRTGKGAVKIAVDMVNEGLVERRTALKMVEPGHLDQLLHPQFENPSGYKDKVIATGLPASPGAAVGQIVFTAEDAEAWHAQGKDVILVRTETSPEDVGGMHAAVGILTARGGMTSHAAVVARGWGKCCVSGCSSVRVNDASKIVVIEDKALHEGEWLSLNGSTGEVIIGKQPLCPPALSGDLETFMSWVDEVRKLKVMANADTPEDATTARQNGAEGIGLCRTEHMFFASDERIKAVRQMIMASSLELRQKALDRLLPYQRSDFEGIFRAMDGLPVTIRLLDPPLHEFLPEGHVEDMVRELCSETGAAQDDVLARVEKLSEVNPMLGFRGCRLGISYPELTEMQARAIFEAAITMTNQGIQVFPEIMVPLVGTPQELGHQVDVIRQIANKVFTDMGKTIGYKVGTMIEIPRAALVADEIAEQAEFFSFGTNDLTQMTFGYSRDDVGKFLPIYLSQGILQHDPFEVLDQRGVGELVKLATERGRKARPNLKVGICGEHGGEPLSVAFFAKAGLDYVSCSPFRVPIARLAAAQVLL
**Q.** How did the binding turn out when B1 was run?
**A.** binds
